One assay deals with 11β-HSD1 Dehydrogenase (Rattus norvegicus, UniProt P16232). As to the kind of experiment: 11β-HSD1 dehydrogenase assay in rat Leydig cell homogenates.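 Also: tritiated corticosterone conversion by 11β-HSD1 dehydrogenase in Leydig homogenates with 3 mM NADP at pH 8.4, 37 °C for 10 min, products resolved by HPLC, inhibition relative to uninhibited enzyme.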 More on the design: Freshly prepared rat Leydig cell homogenates were chosen since they provide a rich and reliable source of both 11β-HSD1 dehydrogenase and reductase; from tissue; host or cells: rat testicular Leydig cells, homogenate. The assay is classed as biochemical.

Sequences of proteins named here, by UniProt entry; tags and fusion partners are left off. A change or cut given only in a name is not applied to a line headed by its entry.
UniProt P16232: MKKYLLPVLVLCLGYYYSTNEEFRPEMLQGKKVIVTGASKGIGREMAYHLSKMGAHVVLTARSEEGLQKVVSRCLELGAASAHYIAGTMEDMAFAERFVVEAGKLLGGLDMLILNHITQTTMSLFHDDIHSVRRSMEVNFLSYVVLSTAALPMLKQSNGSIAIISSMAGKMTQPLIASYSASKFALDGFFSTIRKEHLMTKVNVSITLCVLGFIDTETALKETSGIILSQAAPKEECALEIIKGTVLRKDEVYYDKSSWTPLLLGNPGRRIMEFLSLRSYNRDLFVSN

The target of a further assay is 11β-HSD1 Reductase (Rattus norvegicus, UniProt P16232). Briefly: 11β-HSD1 reductase assay in rat Leydig cell homogenates.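 As to all read-outs here: rat Leydig cell homogenate incubated 20 min at 37 °C, pH 7.4, with tritiated 11-dehydro-corticosterone and 3 mM NADPH, product measured by HPLC, inhibition from triplicate dose–response curves.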 Conditions: for inhibitors of 11β-HSD1 reductase (summary in words): summary of the screening.
In another assay the target is T1, 11β-HSD2 (Ovis aries, UniProt P50168).
T1 construct: incubating sheep kidney microsomal fraction (6.5 μg protein) with 50 nM corticosterone; from tissue; host or cells: sheep kidney microsomal fraction
T1 sequence (P50168 1-427): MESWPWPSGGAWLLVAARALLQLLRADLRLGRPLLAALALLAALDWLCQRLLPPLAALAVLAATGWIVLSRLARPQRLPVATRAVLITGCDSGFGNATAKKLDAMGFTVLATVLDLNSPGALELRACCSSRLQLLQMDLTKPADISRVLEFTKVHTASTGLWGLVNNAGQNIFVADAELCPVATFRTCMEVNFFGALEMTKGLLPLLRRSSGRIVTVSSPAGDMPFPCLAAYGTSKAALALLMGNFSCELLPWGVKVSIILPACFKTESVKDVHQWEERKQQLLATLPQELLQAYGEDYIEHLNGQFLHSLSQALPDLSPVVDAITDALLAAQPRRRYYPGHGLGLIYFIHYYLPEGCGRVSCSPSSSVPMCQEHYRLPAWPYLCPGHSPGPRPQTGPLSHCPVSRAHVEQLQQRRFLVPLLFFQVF
Briefly: 11β-HSD2 enzyme activity in sheep kidney microsomes. The assay is classed as biochemical. The following applies: for inhibitors of 11β-HSD2 (summary in words): summary of the screening. From the text:
The enzymatic reaction was termninated by addition of methanol and synthesis of 11-dehydro-corticosterone was quantitated by HPLC as described above.

Where [1] appears, read: listed as 11-keto-allopregnanolone.

In general, IC50 refers to the midpoint of a concentration-inhibition curve. A lower IC50 goes with higher potency. With `CC(=O)[C@H]1CC[C@H]2[C@@H]3CC[C@@H]4C[C@H](O)CC[C@]4(C)[C@@H]3C(=O)C[C@]12C` [11-Keto-allopregnanolone, 5α-Pregnan-3α-ol-11,20-dione], the IC50 was above 100 µM against 11β-HSD1 Dehydrogenase, 0.8 µM at 11β-HSD1 Reductase and 1.5 µM on 11β-HSD2. Besides, the “Leydig Cell 11β-HSDl Dehydrogenase [S] = 600 nM” value on 11β-HSD1 Dehydrogenase (rat Leydig cell homogenates, 600 nM corticosterone, progesterone and androgen derivatives) was “inactive”. For the same compound, the “inhibitors of 11β-HSD1 reductase (summary in words)” value is listed as “potent inhibitors” against 11β-HSD1 Reductase and “high potency” at 11β-HSD1 Reductase (setting [1]). In addition, the results for the “inhibitors of 11β-HSD2 (summary in words)” value against 11β-HSD2 ([…]) and at 11β-HSD2 (setting [1]) were “high potency” and “potent inhibitors”, respectively.
Regarding `CC(=O)[C@H]1CC[C@H]2[C@@H]3CC[C@@H]4C[C@H](O)CC[C@]4(C)[C@H]3C(=O)C[C@]12C` [11-Keto-pregnanolone, 5β-Pregnan-3α-ol-11,20-dione], the IC50 on 11β-HSD1 Dehydrogenase was above 100 µM; against 11β-HSD1 Reductase, 65 µM; against 11β-HSD2, above 10 µM. Moreover, on 11β-HSD2 (sheep kidney microsomes, corticosterone substrate, progesterone and androgen derivatives), the “Sheep kidney 11β-HSD2 [S] = 50 nM” value is “inactive”.

(Values after US20070093460A1, “Methods of using selective 11beta-HSD inhibitors to treat gluocorticoid associated states” (priority 2005, published 2007).)
